Reference: PubChem BioAssay AID1347423 (Functional Genomics Laboratory (NCATS/FGL), 2020)
Among all 52,000 sequences or so, about 210 (0.4%) were called active.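 How the source made its calls: active means gene whose silencing raises cell survival under the drug, median off-target-corrected z-score across its silencing RNAs 2 or more; inactive means the rest.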 The list shows a part of the results.

test: Resistance to Poly (ADP-Ribose) Polymerase inhibitor: Gene Identification via Genome-wide siRNA Screen; details: mouse BRCA2 R2336H ES cells, olaparib, CellTiter-Glo viability; hits give high values
Summary of the method: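 Mouse BRCA2 R2336H ES cells were reverse-transfected with siRNA (20 nM final), treated at 48 h with 500 nM olaparib, and read by CellTiter-Glo after 72 h. Scores: MAD-based z per siRNA, median per gene, seed off-target correction.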

Sequence | z-score
CCAACAGAACAAUCUGCAUTT against Olfr672 | inactive: -1.34
GGUCAUUCAUAAGCUCCUGTT against Ncf1 | inactive: -0.641
GGUAAAGAGGGAAGAGAUCTT against Akr1d1 | inactive: 0.819
GGAAUUUUUUUCUUCGAUCTT against Sema3a | inactive: -0.0189
GCACCCUACCUGCUAAUGUTT against 3200001I04Rik | inactive: -2.38
GGGAAUGAAUGCUUUACAUTT against Aspn | inactive: -0.599
GGAGCUGUCCCAAGAAAUCTT against 1110055N21Rik | inactive: 0.0557
CCUCAUUAGCAACCAAAAGTT against Spnb4 | inactive: -1.32
GGCCAUGGUUAAACCAUAUTT against Pdcl2 | inactive: 2.94
GGCUAUCUUUUCAGCUUUATT against Sox30 | inactive: -0.0211
GGGACUUGCCAGAAGAUGCTT against 4921504I05Rik | inactive: 0.643
CCAACCCUCCAUCAAAGAATT against 2610207P08Rik | inactive: 0.689
GCCUUGGACUACUUUACACTT against 1810061M12Rik | inactive: 1.01
GGAGCAGACAUCAGAAAGCTT against Nalp5 | inactive: -1.95
GCCAAGUGAUUGAAAAAACTT against Lnp | inactive: -0.698
ACUUCACGAUGGAAAAAUUTT against 1700049E17Rik | inactive: -2.16
GGCAUCAUAAAGCCAGGCATT against 5730410E15Rik | inactive: 0.097
GCAGCAUGUGAAAAGAAGGTT against 2010003K11Rik | inactive: -1.41
GGCACUUUAGUCUUUUCUCTT against Zfp296 | inactive: -0.539
GGCCAAUCAAGAGUAGUAUTT against Fgb | inactive: 0.812
GGAGUUUGUUGGAGCCAUUTT against 9030205A07 | inactive: -1.88
GGGACGAAUUCAGCAAUUUTT against Pcdha6 | inactive: -0.00782
GGACUUGUCCAGCAUUGUATT against Donson | inactive: -1.45
GGUGUUGUGAAGUGUCAAATT against 2900024C23Rik | inactive: -1.23
CCAAUUCUCGAAUCAUUGCTT against Olfr561 | inactive: -0.382
GGCUGAAAAAUUUCAUGAUTT against 1110013G13Rik | inactive: 0.146

Sequence | z-score
GGCUAUUUGAGAACAGGCATT against Cxcl13 | inactive: -0.0052
GGCCAAUAAAGACUGGUUUTT against Rps15 | inactive: -2.32
UAACUGGGCUCACGUUGACTT against Pou2f1 | inactive: -0.778
GGACGUGACAGACAUUAUUTT against Htr5b | inactive: -0.897
GGAGAAAGAAAGCAGUUUUTT against 2310067E19Rik | inactive: 0.223
ACUGGGUUCUUAGUUGUAUTT against Olfr811 | inactive: -0.381
GGGUUUUGUCAAUCAAAUATT against 1500031M22Rik | inactive: -0.348
GGGAGAAGAAAUGGUUUAATT against B230315M08Rik | active: 1.54
GGCUUUUCAGACCAAGCUUTT against 3830406C13Rik | inactive: 0.18
UGGUCACCUUUCUCUUAUUTT against Tas2r137 | inactive: -0.39
GGUUGACUUUGUAACUCAATT against 2610037M15Rik | inactive: -0.665
GGCUGAAAGUGAAGAAACGTT against Srp68 | inactive: -2.51
CCACCAGAUACAGGAUCUATT against 6430517E21Rik | inactive: -1.81
GGAGAGAUAUCUUUGGUGGTT against Slc27a4 | inactive: -0.0625
GGUGGUGAGAUAGAGAAAUTT against C1qg | inactive: -2.11
GGGUAUACGGCAUUUCCUATT against Rad9b | inactive: -0.255
GACAUUGUCUGAUUUUGGATT against V1rg9 | inactive: 0.139
GGAGGAAGUGAACAAAAUGTT against Afp | inactive: -0.134
GGUGAAAGUGAGAAGGAAGTT against 6720460F02Rik | inactive: -0.247
CGUGUCAUACAGGUGUGGUTT against Lhx8 | inactive: 0.00267
CGGCAACUUUCUGAACAUCTT against Nfix | inactive: -0.427
CCGCUUUAAGGCACAUCCATT against 4933400K24Rik | inactive: 1.09
GGUGCUUCUGGAAAAGUUGTT against 3732409C05Rik | inactive: -0.891
GGUACAGAGAUCUAAGACUTT against Opn4 | inactive: -1.06
CUGAAUCAGAUAAAGAGUUTT against Hist2h2aa1 | inactive: -1.1
GGAGGUAUUUACCAAAGAUTT against CRG-L1 | inactive: -0.876

Sequence | z-score
UGAAGGCAAAUCACUCUUUTT against Olfr181 | inactive: 0.00802
GCCACUUUUGUCAAGGAAATT against Supt16h | inactive: -2.47
GACUCUCCUGCUUUUACCUTT against 1700019G17Rik | inactive: -0.537
CCAAGCUUCCUUCUAAAUATT against 5830457H20Rik | inactive: 0.139
GGCCUGAUGGAAUUAUAGATT against Wdr31 | inactive: -0.44
GGAUUUUUGUGAGUCUAAGTT against Sdro | inactive: 0.796
UUUCCAGUCUCGCCCGAUUTT against Elmo1 | inactive: -0.784
CCUGCUACUAUUGAAGUUGTT against Gtf3c2 | inactive: 1.59
GGGACUUUCCAAACUAUAUTT against Irak1bp1 | inactive: -0.132
GCAUCAGAGAAGUGCGAGCTT against Pafah2 | inactive: -0.509
CCAGCACUAAAAGUAAGUGTT against V1rd12 | inactive: 0.378
AGCCUAGCCUUUUUUGUACTT against Mt2 | inactive: 0.902
GGCUUCAAAGCAUGACCAGTT against Ccr1 | inactive: 0.74
GAGGUACCUCUACACAGAUTT against Fgf21 | inactive: -2.56
GGUGAUGUACAAAGCCAAUTT against Gab3 | inactive: -0.269
GGAUGAAAAUGAGUGGAAATT against Cdv3 | inactive: 0.778
GCUUUCUACACCAUUCUUATT against Olfr165 | inactive: 1.59
CCAUUACAGGGUUAUUGCATT against Rnf8 | inactive: -2.28
GCACCUGGUGAAUUUUACCTT against D15Ertd405e | inactive: 1.06
GGAAUCAGCUAAUGAUUUCTT against AW125391 | inactive: 0.338
UAUGGACGCAUUGGAGCCATT against Olfr348 | inactive: -0.681
GCAUUAUCCAGAACUUAGATT against Sema3f | inactive: 0.667
GGCGAGAGGUACGACAAUATT against H60 | inactive: 0.622
GGCUGGUACAAAGUUUUAGTT against Mpv17 | inactive: 0.594
CCUCAAGACUAUCAGGAGATT against Nrbf2 | inactive: -0.471
GGGCUAAAGUUGAUAAUAATT against Psmc3 | inactive: -3.32

2 entries picked at random from the list so far:
Sequence | z-score
GCAUCAGAGAAGUGCGAGCTT against Pafah2 | inactive: -0.509
CCAACAGAACAAUCUGCAUTT against Olfr672 | inactive: -1.34

At a glance, part of the list above:
Sequence | z-score
GGCCAUGGUUAAACCAUAUTT against Pdcl2 | inactive: 2.94
GGCUAUCUUUUCAGCUUUATT against Sox30 | inactive: -0.0211
GGGACUUGCCAGAAGAUGCTT against 4921504I05Rik | inactive: 0.643
CCAACCCUCCAUCAAAGAATT against 2610207P08Rik | inactive: 0.689
GCCUUGGACUACUUUACACTT against 1810061M12Rik | inactive: 1.01
GGAGCAGACAUCAGAAAGCTT against Nalp5 | inactive: -1.95

(listing goes on)

Sequence | z-score
CGCAGAGUUGAUUGUCCUGTT against Neu2 | inactive: 0.8
GGAACACGAAUCAUUUAUGTT against Eif4ebp2 | inactive: 0.322
GGCCAUUCAGACGAGUGUUTT against Hivep3 | inactive: -0.695
GGUAAGUGGAGGUAUUCUUTT against Egln1 | inactive: 1.58
CGCUGAGCACUUUUCGGAATT against Rbp1 | inactive: 0.625
GGCACAGCUGAUGAAACAATT against Ap2m1 | inactive: -2.19
GGAUUUAGGUAUGUUUCACTT against C030011J08Rik | inactive: 1.87
GCCAAUGGUCACGAACCUATT against Senp5 | inactive: 0.0286
GGCAUGUAAUUUGAUGAUCTT against Mansc1 | inactive: 1.34
CGGAAACAAACGGACUGAUTT against Agpat4 | inactive: -1.5
GCAGUACAGAUCGCCAUUATT against Tmeff1 | inactive: 1.19
CGUAUGUAUGCCAACCUGGTT against D15Wsu169e | inactive: 0.555
GGGAAGAUGUGAUGUCUUUTT against Rab7l1 | inactive: -0.392
GGAAUUUAGGAAGCAAAAGTT against 2610510H01Rik | inactive: 2.16
GGAAUCAGUUUCAGAGAAUTT against Mtf2 | inactive: 0.116
GGAAGAGUGUCUAAAUGUATT against BC018472 | inactive: -1.62
GACCAAGUUCAAAAUUCGATT against Gp49a | inactive: 0.0957
GGAUAAAGCAUCAGACAAATT against Hmgn1 | inactive: -0.25
GGCCUUAUUGAUAAGUCUUTT against Pte2a | inactive: -1.04
GGAUGUCUUUGUUCACCAGTT against Ybx2 | inactive: 0.773
GGAAGACGGGCAUCAUGAATT against Srf | inactive: 1.66
GCACCAGUUACAGAAUGGATT against Zfp192 | inactive: -0.722
GGUUUUAAGUUCUAGGGAATT against Olfr1288 | inactive: -0.079
GGCUGAUAUGACCAACUUUTT against Gt(ROSA)26asSor | inactive: 0.0158
GGUAUCUGACCUCUUAAAATT against Olr1 | inactive: -0.359
